In patent US5523298A, “Progestationally active 19,11-bridged 4-estrenes” (Schering Aktiengesellschaft, priority 1992, dated 1996):
The name of at least one read-out is uncertain.

System: rat
Experiment: Pregnancy maintenance test on the rat after s.c. administration
Format: in vivo
Details: subcutaneous administration

Structure (SMILES)	Fully effective at [mg/day/animal]
C#C[C@]1(O)CC[C@H]2[C@@H]3CCC4=CC(=O)CC[C@@]45CC=C[C@@H](C[C@@]21C)[C@@H]35 [A, 9,11α-Dihydro-17α-ethinyl-17β-hydroxy-6'H-benzo[10,9,11]estr-4-en-3-one]	0.1
CC#C[C@]1(O)CC[C@H]2[C@@H]3CCC4=CC(=O)CC[C@@]45CC=C[C@@H](C[C@@]21C)[C@@H]35 [B, 9,11α-dihydro-17β-hydroxy-17α-(1-propinyl)-6'H-benzo[10,9,11]estr-4-en-3-one]	0.1
C#C[C@]1(O)C=C[C@H]2[C@@H]3CCC4=CC(=O)CC[C@@]45CC=C[C@@H](C[C@@]21C)[C@@H]35 [C, 9,11α-dihydro-17α-ethinyl-17β-hydroxy-6'H-benzo[10,9,11]estra-4,15-dien-3-one]	0.03
CC#C[C@]1(O)CC[C@H]2[C@@H]3CCC4=CC(=O)CC[C@@]45CC=C[C@@H](C[C@@]21CC)[C@@H]35 [Compound F, 9,11α-dihydro-17β-hydroxy-17α-(1-propinyl)-6'H-benzo[10,9,11]-18a-homoestr-4-en-3-one]	0.1
CC(=O)O[C@]1(C(C)=O)CC[C@H]2[C@@H]3C=CC4=CC(=O)CC[C@@]45CC=C[C@@H](C[C@@]21C)[C@@H]35 [Compound K, 17-(acetyloxy)-9,11α-dihydro-6'H-benzo[10,9,11]-19-norpregna-4,6-diene-3,20-dione]	0.1
CC#C[C@]1(O)C=C[C@H]2[C@@H]3CCC4=CC(=O)CC[C@@]45CC=C[C@@H](C[C@@]21C)[C@@H]35 [D, 9,11α-dihydro-17β-hydroxy-17α-(1-propinyl)-6'H-benzo[10,9,11]estra-4,15-dien-3-one]	0.03
C#C[C@]1(O)CC[C@H]2[C@@H]3CCC4=CC(=O)CC[C@@]45CC=C[C@@H](C[C@@]21CC)[C@@H]35 [E, 9,11α-dihydro-17α-ethinyl-17β-hydroxy-6'H-benzo[10,9,11]-18a-homoestr-4-en-3-one]	0.03
C#C[C@]1(O)C=C[C@H]2[C@@H]3CCC4=CC(=O)CC[C@@]45CC=C[C@@H](C[C@@]21CC)[C@@H]35 [G, 9,11α-dihydro-17α-ethinyl-17β-hydroxy-6'H-benzo[10,9,11]-18a-homoestra-4,15-dien-3-one]	0.03
CC#C[C@]1(O)C=C[C@H]2[C@@H]3CCC4=CC(=O)CC[C@@]45CC=C[C@@H](C[C@@]21CC)[C@@H]35 [H, 9,11α-dihydro-17β-hydroxy-17α-(1-propinyl)-6'H-benzo[10,9,11]-18a-homoestra-4,15-dien-3-one]	0.1
CC(=O)O[C@]1(C(C)=O)CC[C@H]2[C@@H]3CCC4=CC(=O)CC[C@@]45CC=C[C@@H](C[C@@]21C)[C@@H]35 [I, 17-(acetyloxy)-9,11α-dihydro-6'H-benzo[10,9,11]-19-norpregn-4-ene-3,20-dione]	0.1
